No constants are given. Whether binding was seen depends on the method and setting. Binding seen in cells or lysates may run through a third protein. These calls come from enrichment with a bait or labelling near it, and not all partners need be listed. Where a sequence is shown, tags or fusion partners need not be part of it.
Target: T1, Flag-tagged FBXO2 (wild type) (human) (UniProt Q9UK22)
T1 sequence: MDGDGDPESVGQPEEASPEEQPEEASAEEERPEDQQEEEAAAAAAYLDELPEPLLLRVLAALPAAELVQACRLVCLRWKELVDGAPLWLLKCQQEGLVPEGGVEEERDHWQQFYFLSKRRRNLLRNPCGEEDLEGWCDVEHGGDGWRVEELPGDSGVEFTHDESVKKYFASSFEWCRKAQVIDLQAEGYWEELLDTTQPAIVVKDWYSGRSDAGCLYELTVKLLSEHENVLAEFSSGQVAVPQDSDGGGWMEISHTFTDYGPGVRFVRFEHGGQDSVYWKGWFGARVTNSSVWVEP
Assay: affinity purification with mass spectrometry

binding: binds
B1: heat shock protein 47 (Hsp47), endogenous (protein, UniProt P50454 19-418)
chain: AEVKKPAAAAAPGTAEKLSPKAATLAERSAGLAFSLYQAMAKDQAVENILVSPVVVASSLGLVSLGGKATTASQAKAVLSAEQLRDEEVHAGLGELLRSLSNSTARNVTWKLGSRLYGPSSVSFADDFVRSSKQHYNCEHSKINFRDKRSALQSINEWAAQTTDGKLPEVTKDVERTDGALLVNAMFFKPHWDEKFHHKMVDNRGFMVTRSYTVGVMMMHRTGLYNYYDDEKEKLQIVEMPLAHKLSSLIILMPHHVEPLERLEKLLTKEQLKIWMGKMQKKAVAISLPKGVVEVTHDLQKHLAGLGLTEAIDKNKADLSRMSGKKDLYLASVFHATAFELDTDGNPFDQDIYGREELRSPKLFYADHPFIFLVRDTQSGSLLFIGRLVRPKGDKMRDEL

Source: doi:10.1101/2024.03.28.586926
